Experimental data published in the supplement of paper PMC4604168 (melanoma cell lines).
The list shows a part of the results. Single values are uncertain, as repeats are few or missing.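 Cells were imaged in 1,536-well plates, and nuclei stained with an antibody against cleaved PARP were counted against all DNA-stained nuclei to give the apoptosis fraction. Screening doses were chosen to leave most cells alive, and resting and induced cleaved-PARP levels differ strongly between cell lines.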

These compounds were tested on LB2518-MEL (assay: cleaved PARP positive nuclei fraction relative to DMSO control; melanoma cells; higher = more apoptosis). Details: library dose: low library concentration; 72 h.

Structure (SMILES)	cleaved PARP positive nuclei fraction
CN(C)S(=O)(=O)c1ccc2c(c1)/C(=C/c1cc3c([nH]1)CCCC3)C(=O)N2 + COc1cc2ncnc(Nc3ccc(Oc4ccccc4)cc3)c2cc1OC [SrcI1] (first compound 0.4 µM, partner dose 2 µM)	86.9%
NCC(=O)Nc1ccc(-n2nc(C(F)(F)F)cc2-c2ccc3c(ccc4ccccc43)c2)cc1 + Cn1cc(/C=C2\C(=O)Nc3cccnc32)c2ccccc21 [GW441756] (first compound 1 µM, partner dose 0.4 µM)	255%
O=C(Nc1ccccc1)c1cc([N+](=O)[O-])ccc1Cl + Oc1cc(-c2nc(-c3ccccc3)[nH]c2-c2ccncc2)ccc1Cl [L779450] (first compound 2 µM, partner dose 0.2 µM)	218%
O=C1NC(=O)/C(=C/c2ccc(-c3ccc(F)cc3O)o2)S1 + c1cc(-c2cnn3cc(-c4ccc(OCCN5CCCCC5)cc4)cnc23)ccn1 [Dorsomorphin] (first compound 1 µM, partner dose 0.4 µM)	87%
COC(=O)c1sccc1S(=O)(=O)Nc1ccc(Nc2ccccc2)cc1OC + COc1ccc(COc2ccc(Cc3cnc(N)nc3N)cc2OC)cc1 [GW2580] (first compound 1 µM, partner dose 1 µM)	79.5%
COc1cc2c(Oc3ccc4[nH]c(C)cc4c3F)ncnc2cc1OCCCN1CCCC1 [cediranib] + CCN(CC)CCCCNc1ncc2cc(-c3cc(OC)cc(OC)c3)c(NC(=O)NC(C)(C)C)nc2n1 [PD173074] (first compound 0.4 µM, partner dose 0.1 µM)	102%
O=C1NC(=O)/C(=C/c2ccc(-c3ccc(F)cc3O)o2)S1 + COc1cc(N2CCC(N3CCN(C)CC3)CC2)ccc1Nc1ncc(Cl)c(Nc2ccccc2S(=O)(=O)C(C)C)n1 [NVP-TAE684] (first compound 1 µM, partner dose 0.08 µM)	90.8%
O=C(O)c1ccc(-c2c[nH]c3ncc(-c4ccccc4)cc23)cc1C1CCCC1 + O=C(O)C(=O)Nc1sc2c(c1C(=O)O)CCNC2 [TCS401] (first compound 0.16 µM, partner dose 1.66667 µM)	73.9%
CN(NC(=O)CC(=O)NN(C)C(=S)c1ccccc1)C(=S)c1ccccc1 + CCN(CC)CCCCNc1ncc2cc(-c3cc(OC)cc(OC)c3)c(NC(=O)NC(C)(C)C)nc2n1 [PD173074] (first compound 0.006 µM, partner dose 0.1 µM)	211%
NCC(=O)Nc1ccc(-n2nc(C(F)(F)F)cc2-c2ccc3c(ccc4ccccc43)c2)cc1 + Cc1cc([N+](=O)[O-])ccc1NS(=O)(=O)c1cc(Cl)ccc1Cl [FH535] (first compound 1 µM, partner dose 1 µM)	169%
COc1ccc(COc2ccc(Cc3cnc(N)nc3N)cc2OC)cc1 + O=S(=O)(c1ccccc1)N(CC(F)(F)F)c1ccc(C(O)(C(F)(F)F)C(F)(F)F)cc1 [T0901317] (first compound 1 µM, partner dose 1.4 µM)	86.5%
O=C(Nc1ccccc1)c1cc([N+](=O)[O-])ccc1Cl + COc1ccc(COc2ccc(Cc3cnc(N)nc3N)cc2OC)cc1 [GW2580] (first compound 2 µM, partner dose 1 µM)	87.3%
NCC(=O)Nc1ccc(-n2nc(C(F)(F)F)cc2-c2ccc3c(ccc4ccccc43)c2)cc1 + COc1ccc(-c2ccc3c(N4CCOCC4)nc(N4C[C@@H](C)O[C@@H](C)C4)nc3n2)cc1CO [KU0063794] (first compound 1 µM, partner dose 0.02 µM)	39.1%
COc1cc2c(Oc3ccc4[nH]c(C)cc4c3F)ncnc2cc1OCCCN1CCCC1 [cediranib] + COc1ccc(-c2ccc3c(N4CCOCC4)nc(N4C[C@@H](C)O[C@@H](C)C4)nc3n2)cc1CO [KU0063794] (first compound 0.4 µM, partner dose 0.02 µM)	139%
O=S(=O)(c1ccccc1)N(CC(F)(F)F)c1ccc(C(O)(C(F)(F)F)C(F)(F)F)cc1 + CC(C)CCN1c2nc(Nc3cc(F)c(O)c(F)c3)ncc2N(C)C(=O)C1C [BID1870] (first compound 1.4 µM, partner dose 0.2 µM)	154%
NCC(=O)Nc1ccc(-n2nc(C(F)(F)F)cc2-c2ccc3c(ccc4ccccc43)c2)cc1 + COc1cc2ncnc(Nc3ccc(Oc4ccccc4)cc3)c2cc1OC [SrcI1] (first compound 1 µM, partner dose 2 µM)	68.4%
NCC(=O)Nc1ccc(-n2nc(C(F)(F)F)cc2-c2ccc3c(ccc4ccccc43)c2)cc1 + O=C1NC(=O)/C(=C/c2ccc(-c3ccc(F)cc3O)o2)S1 [AS252424] (first compound 1 µM, partner dose 1 µM)	185%
COc1cc2ncnc(Nc3ccc(Oc4ccccc4)cc3)c2cc1OC + c1cc(-c2cnn3cc(-c4ccc(OCCN5CCCCC5)cc4)cnc23)ccn1 [Dorsomorphin] (first compound 2 µM, partner dose 0.4 µM)	59.5%

Structure (SMILES)	cleaved PARP positive nuclei fraction
CCc1ccc(CCOc2ccc(CC3SC(=O)NC3=O)cc2)nc1 (stereo unspecified) [pioglitazone] + COC(=O)c1sccc1S(=O)(=O)Nc1ccc(Nc2ccccc2)cc1OC [GSK0660] (first compound 2 µM, partner dose 1 µM)	267%
O=C(Nc1ccccc1)c1cc([N+](=O)[O-])ccc1Cl + COc1ccc2c(c1)CCC1C2CCC2(C)C(NCCCCCCN3C(=O)C=CC3=O)CCC12 [U73122] (first compound 2 µM, partner dose 0.4 µM)	86.4%
COc1cc2c(Oc3ccc4[nH]c(C)cc4c3F)ncnc2cc1OCCCN1CCCC1 [cediranib] + O=C1NC(=O)/C(=C/c2ccc(-c3ccc(F)cc3O)o2)S1 [AS252424] (first compound 0.4 µM, partner dose 1 µM)	94.2%
O=C(O)c1ccc(-c2c[nH]c3ncc(-c4ccccc4)cc23)cc1C1CCCC1 + CCc1ccc(CCOc2ccc(CC3SC(=O)NC3=O)cc2)nc1 [pioglitazone] (first compound 0.16 µM, partner dose 2 µM)	240%
COc1cc2ncnc(Nc3ccc(Oc4ccccc4)cc3)c2cc1OC + Oc1cc(-c2nc(-c3ccccc3)[nH]c2-c2ccncc2)ccc1Cl [L779450] (first compound 2 µM, partner dose 0.2 µM)	181%
Oc1nc(-c2ccc(C(F)(F)F)cc2)nc2c1CSCC2 + O=c1cc(-c2cccc3c2Sc2ccccc2S3)oc(N2CCOCC2)c1 [KU55933] (first compound 2 µM, partner dose 1 µM)	69.2%
COc1ccc(-c2ccc3c(N4CCOCC4)nc(N4C[C@@H](C)O[C@@H](C)C4)nc3n2)cc1CO + O=S(=O)(c1ccccc1)N(CC(F)(F)F)c1ccc(C(O)(C(F)(F)F)C(F)(F)F)cc1 [T0901317] (first compound 0.02 µM, partner dose 1.4 µM)	72.8%
N#Cc1c(O)c2c(-c3ccc(-c4ccccc4O)cc3)csc2[nH]c1=O + Cn1cc(/C=C2\C(=O)Nc3cccnc32)c2ccccc21 [GW441756] (first compound 2 µM, partner dose 0.4 µM)	79.8%
NCC(=O)Nc1ccc(-n2nc(C(F)(F)F)cc2-c2ccc3c(ccc4ccccc43)c2)cc1 + O=C(O)C(=O)Nc1sc2c(c1C(=O)O)CCNC2 [TCS401] (first compound 1 µM, partner dose 1.66667 µM)	165%
NCC(=O)Nc1ccc(-n2nc(C(F)(F)F)cc2-c2ccc3c(ccc4ccccc43)c2)cc1 + CCc1ccc(CCOc2ccc(CC3SC(=O)NC3=O)cc2)nc1 [pioglitazone] (first compound 1 µM, partner dose 2 µM)	168%
O=C(Nc1ccccc1)c1cc([N+](=O)[O-])ccc1Cl + CC(C)CCN1c2nc(Nc3cc(F)c(O)c(F)c3)ncc2N(C)C(=O)C1C [BID1870] (first compound 2 µM, partner dose 0.2 µM)	91.4%
O=C(O)c1ccc(-c2c[nH]c3ncc(-c4ccccc4)cc23)cc1C1CCCC1 + Oc1cc(-c2nc(-c3ccccc3)[nH]c2-c2ccncc2)ccc1Cl [L779450] (first compound 0.16 µM, partner dose 0.2 µM)	198%
CN(C)S(=O)(=O)c1ccc2c(c1)/C(=C/c1cc3c([nH]1)CCCC3)C(=O)N2 + COc1ccc(COc2ccc(Cc3cnc(N)nc3N)cc2OC)cc1 [GW2580] (first compound 0.4 µM, partner dose 1 µM)	83.1%
COc1ccc(COc2ccc(Cc3cnc(N)nc3N)cc2OC)cc1 + c1cc(-c2cnn3cc(-c4ccc(OCCN5CCCCC5)cc4)cnc23)ccn1 [Dorsomorphin] (first compound 1 µM, partner dose 0.4 µM)	40.8%
COc1ccc(-c2ccc3c(N4CCOCC4)nc(N4C[C@@H](C)O[C@@H](C)C4)nc3n2)cc1CO + Oc1cc(-c2nc(-c3ccccc3)[nH]c2-c2ccncc2)ccc1Cl [L779450] (first compound 0.02 µM, partner dose 0.2 µM)	99.6%
CCN(CC)CCCCNc1ncc2cc(-c3cc(OC)cc(OC)c3)c(NC(=O)NC(C)(C)C)nc2n1 + Cc1cc([N+](=O)[O-])ccc1NS(=O)(=O)c1cc(Cl)ccc1Cl [FH535] (first compound 0.1 µM, partner dose 1 µM)	111%
O=S(=O)(c1ccccc1)N(CC(F)(F)F)c1ccc(C(O)(C(F)(F)F)C(F)(F)F)cc1 + Cc1cc([N+](=O)[O-])ccc1NS(=O)(=O)c1cc(Cl)ccc1Cl [FH535] (first compound 1.4 µM, partner dose 1 µM)	201%
COc1cc2ncnc(Nc3ccc(Oc4ccccc4)cc3)c2cc1OC + O=C(O)C(=O)Nc1sc2c(c1C(=O)O)CCNC2 [TCS401] (first compound 2 µM, partner dose 1.66667 µM)	54.9%

Random excerpt: 2 records from the list.
Structure (SMILES)	cleaved PARP positive nuclei fraction
COc1ccc(-c2ccc3c(N4CCOCC4)nc(N4C[C@@H](C)O[C@@H](C)C4)nc3n2)cc1CO + O=S(=O)(c1ccccc1)N(CC(F)(F)F)c1ccc(C(O)(C(F)(F)F)C(F)(F)F)cc1 [T0901317] (first compound 0.02 µM, partner dose 1.4 µM)	72.8%
NCC(=O)Nc1ccc(-n2nc(C(F)(F)F)cc2-c2ccc3c(ccc4ccccc43)c2)cc1 + COc1cc2ncnc(Nc3ccc(Oc4ccccc4)cc3)c2cc1OC [SrcI1] (first compound 1 µM, partner dose 2 µM)	68.4%
